“Also recorded” adds a separate entry of the source. Part of at least one peptide drawing is inferred or uncertain, most often the ends.
Legend:
Assay type in all cases: cell-based, human
[1] = test system: A172 cells (uPAR expressing); experiment: Cytokine production of engineered ABT cells following stimulation with A172 cells; conditions: Anti-DNP TAC, DAP12 SAR and CD28 CAR ABT cells; 100 nM adapter; 4 hours
[2] = test system: uPAR-positive A172 cells; experiment: Anti-DNP GDT cell mediated killing of A172 cells; conditions: Anti-DNP DAP12-SAR GDT cells; E:T 8:1; 1, 10, 100 nM; 3 days
Description: The cells were then transferred back to the G-Rex plate and cultured for a further 11 days at which point, the cell product was collected, CD4/CD8 T cells were removed by magnetic selection and the purified engineered GDT cells were cryopreserved.
Measuring T cell mediated killing of A172 cells: A172 cells, which are urokinase type plasminogen activator receptor (uPAR) positive, were engineered with eGFP lentivirus to produce green fluorescent protein expressing cells. […] Also added to the wells were uPAR-CIR or uPAR-(N)CIR at a range of concentrations from 1 nM, 10 nM and 100 nM. […] Samples were run in triplicate. The green image mean of the wells at each time point was calculated using the Incucyte cell by cell analysis software and plotted to yield the following figures. The values were normalized to the starting green image mean. A172 tumor cells alone were also included as a control. For the analysis of killing by Anti-DNP CD28 CAR GDT cells, the area under the growth curve (AUC) was analyzed using PRISM Graphpad and to calculate the % cytotoxicity.

[3] = test system: uPAR-positive A172 cells; experiment: ABT cell mediated killing of A172 cells; conditions: Anti-DNP TAC, DAP12 SAR and CD28 CAR ABT cells; E:T 8:1; 1, 10, 100 nM; 4 days
[4] = test system: A172KOA cells (uPAR removed by CRISPR/Cas9); experiment: Cytokine production of engineered ABT cells co-cultured with A172KOA cells; conditions: engineered ABT cells with A172KOA cells lacking uPAR; 100 nM

Q: Which “cytokine production (IFNg, TNFa, intracellular staining)” value [1] does the source give for `CC(C)C[C@H](NC(=O)[C@H](Cc1ccc(O)cc1)NC(=O)[C@@H](CCCNC(=N)N)NC(=O)[C@@H](CO)NC(=O)[C@H](Cc1ccccc1)NC(=O)[C@H](CC1CCCCC1)NC(=O)[C@H](CC(=O)O)NC(=O)CNC(=O)[C@H](CO)NC(=O)CNC(=O)CNC(=O)[C@H](CCCCNc1ccc([N+](=O)[O-])cc1[N+](=O)[O-])NC(=O)c1cccc(S(=O)(=O)F)c1)C(=O)N[C@@H](Cc1c[nH]c2ccccc12)C(=O)N[C@@H](CO)C(=O)O` [uPAR-CIR, DNP-SuFEx-uPAR binding peptide] here?
A: The value was “elicited cytokine production in all engineered T cells; also recorded: increase in cytokine production over the media controls”.

Q: And the “lysis of A172 cells” value [2]?
A: The value was “could mediate lysis; also recorded: can be redirected”.

Q: And the “killing of A172 cells” value [3]?
A: The value was “could trigger killing; also recorded: can be redirected”.

Q: And the “cytokine production (IFNg, TNFa)” value [4]?
A: The value was “did not occur”.

Source: patent US20260248852A1, “SYNTHETIC ANTIGEN RECEPTORS FOR COVALENT IMMUNE RECRUITERS AND METHODS AND USES THEREOF” (McMaster University, priority 2022, published 2026)
